Test results: the supplement of paper PMC9233669
This sample is rich in variants without activity.

Key:
biotinyl-Leu-oxazolone = test: self-aminoacylation, catalytic enhancement (BLO) (fold over background); higher = more active; k-Seq, kA / k0A0; sequences stand for … in GGGAAUGGAUCCACAUCUACGAAUUC…UUCACUGCAGACUUGACGAAGCUG
Method in brief: (§1)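 The uncatalyzed rate is the low-activity peak of a bimodal Gaussian fit, and catalytic enhancement is median kA divided by it. The kA values came from pseudo-first-order fits, with 1000 bootstraps, of per-sequence fraction reacted measured by streptavidin capture, triplicate qPCR and Illumina sequencing. Mutagenized RNA pools with a 21-nt variable region (0.43 μM) were reacted with each biotinyl-aminoacyl-oxazolone at 2–1250 μM in 50 μL HEPES/NaCl/KCl/MgCl2/CaCl2 buffer with 5% acetonitrile, pH 6.9–7.0, for 90 minutes at room temperature.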

biotinyl-Val-oxazolone = test: self-aminoacylation, catalytic enhancement (BVO) (fold over background); higher = more active; k-Seq, kA / k0A0; sequences stand for … in GGGAAUGGAUCCACAUCUACGAAUUC…UUCACUGCAGACUUGACGAAGCUG
Method in brief: as §1

biotinyl-Ile-oxazolone = test: self-aminoacylation, catalytic enhancement (BIO) (fold over background); higher = more active; k-Seq, kA / k0A0; sequences stand for … in GGGAAUGGAUCCACAUCUACGAAUUC…UUCACUGCAGACUUGACGAAGCUG
Method in brief: as §1

biotinyl-Trp-oxazolone = test: self-aminoacylation, catalytic enhancement (BWO) (fold over background); higher = more active; k-Seq, kA / k0A0; sequences stand for … in GGGAAUGGAUCCACAUCUACGAAUUC…UUCACUGCAGACUUGACGAAGCUG
Method in brief: as §1

biotinyl-Met-oxazolone = test: self-aminoacylation, catalytic enhancement (BMO) (fold over background); higher = more active; k-Seq, kA / k0A0; sequences stand for … in GGGAAUGGAUCCACAUCUACGAAUUC…UUCACUGCAGACUUGACGAAGCUG
Method in brief: as §1

Sequence: CAGUUUCCUAAUAGUCGCAAG [Fam3.1 aminoacylation ribozyme variant]
- self-aminoacylation (biotinyl-Leu-oxazolone): 1.5
- self-aminoacylation (biotinyl-Val-oxazolone): 1.41
- self-aminoacylation (biotinyl-Ile-oxazolone): 1.52
- self-aminoacylation (biotinyl-Trp-oxazolone): 1.01
- self-aminoacylation (biotinyl-Met-oxazolone): 1.34

Sequence: CAGUUUGCUAAUAGUCGAAAG [Fam3.1 aminoacylation ribozyme variant]
- self-aminoacylation (biotinyl-Leu-oxazolone): 1.21
- self-aminoacylation (biotinyl-Val-oxazolone): 1.01
- self-aminoacylation (biotinyl-Ile-oxazolone): 0.996
- self-aminoacylation (biotinyl-Trp-oxazolone): 1.23
- self-aminoacylation (biotinyl-Met-oxazolone): 0.883

Sequence: CAGUUUGCUAAUAGUCGCAGG [Fam3.1 aminoacylation ribozyme variant]
- self-aminoacylation (biotinyl-Leu-oxazolone): 1.9
- self-aminoacylation (biotinyl-Val-oxazolone): 1.67
- self-aminoacylation (biotinyl-Ile-oxazolone): 1.72
- self-aminoacylation (biotinyl-Trp-oxazolone): 1.51
- self-aminoacylation (biotinyl-Met-oxazolone): 1.48

Sequence: CCACACUUAAAGCACUCGGUC [Fam1B.1 aminoacylation ribozyme variant]
- self-aminoacylation (biotinyl-Leu-oxazolone): 0.924
- self-aminoacylation (biotinyl-Val-oxazolone): 1.11
- self-aminoacylation (biotinyl-Ile-oxazolone): 1.16
- self-aminoacylation (biotinyl-Trp-oxazolone): 0.732
- self-aminoacylation (biotinyl-Met-oxazolone): 0.856

Sequence: CCACACUUCAAACAAUCGAUC [Fam1B.1 aminoacylation ribozyme variant]
- self-aminoacylation (biotinyl-Leu-oxazolone): 0.455
- self-aminoacylation (biotinyl-Val-oxazolone): 0.613
- self-aminoacylation (biotinyl-Ile-oxazolone): 0.586
- self-aminoacylation (biotinyl-Trp-oxazolone): 1.08
- self-aminoacylation (biotinyl-Met-oxazolone): 0.409

Sequence: CCACACUUCAAGUAAUCGGUG [Fam1B.1 aminoacylation ribozyme variant]
- self-aminoacylation (biotinyl-Leu-oxazolone): 6.33
- self-aminoacylation (biotinyl-Val-oxazolone): 2.98
- self-aminoacylation (biotinyl-Ile-oxazolone): 3.28
- self-aminoacylation (biotinyl-Trp-oxazolone): 4.68
- self-aminoacylation (biotinyl-Met-oxazolone): 4.68

Sequence: CCACACUUCAGGCUAUCGGUC [Fam1B.1 aminoacylation ribozyme variant]
- self-aminoacylation (biotinyl-Leu-oxazolone): 1.23
- self-aminoacylation (biotinyl-Val-oxazolone): 1.33
- self-aminoacylation (biotinyl-Ile-oxazolone): 1.33
- self-aminoacylation (biotinyl-Trp-oxazolone): 1.39
- self-aminoacylation (biotinyl-Met-oxazolone): 1.1

Sequence: CCACACUUCAUGCAAUCGGUU [Fam1B.1 aminoacylation ribozyme variant]
- self-aminoacylation (biotinyl-Leu-oxazolone): 1.37
- self-aminoacylation (biotinyl-Val-oxazolone): 1.26
- self-aminoacylation (biotinyl-Ile-oxazolone): 1.2
- self-aminoacylation (biotinyl-Trp-oxazolone): 0.843
- self-aminoacylation (biotinyl-Met-oxazolone): 1.33

Sequence: CCACAUUUCAAGCAAUCGGUC [Fam1B.1 aminoacylation ribozyme variant]
- self-aminoacylation (biotinyl-Leu-oxazolone): 1.07
- self-aminoacylation (biotinyl-Val-oxazolone): 1.32
- self-aminoacylation (biotinyl-Ile-oxazolone): 1.26
- self-aminoacylation (biotinyl-Trp-oxazolone): 1.88
- self-aminoacylation (biotinyl-Met-oxazolone): 1.03

Sequence: CCUCACUUCAAGCAAUCGGAC [Fam1B.1 aminoacylation ribozyme variant]
- self-aminoacylation (biotinyl-Leu-oxazolone): 0.832
- self-aminoacylation (biotinyl-Val-oxazolone): 0.941
- self-aminoacylation (biotinyl-Ile-oxazolone): 0.979
- self-aminoacylation (biotinyl-Trp-oxazolone): 1.4
- self-aminoacylation (biotinyl-Met-oxazolone): 0.732

Sequence: CCUCACUUCAAGGAAUCGGUC [Fam1B.1 aminoacylation ribozyme variant]
- self-aminoacylation (biotinyl-Leu-oxazolone): 0.936
- self-aminoacylation (biotinyl-Val-oxazolone): 0.869
- self-aminoacylation (biotinyl-Ile-oxazolone): 0.76
- self-aminoacylation (biotinyl-Trp-oxazolone): 4.27
- self-aminoacylation (biotinyl-Met-oxazolone): 0.946

Sequence: CUAAUUCAAAUAAUCGGUCUG [Fam1A.1 aminoacylation ribozyme variant]
- self-aminoacylation (biotinyl-Leu-oxazolone): 0.733
- self-aminoacylation (biotinyl-Val-oxazolone): 0.749
- self-aminoacylation (biotinyl-Ile-oxazolone): 0.803
- self-aminoacylation (biotinyl-Trp-oxazolone): 1.76
- self-aminoacylation (biotinyl-Met-oxazolone): 0.7

Sequence: CUACAGUUCAAGCAAUCGGUC [Fam1B.1 aminoacylation ribozyme variant]
- self-aminoacylation (biotinyl-Leu-oxazolone): 1.07
- self-aminoacylation (biotinyl-Val-oxazolone): 0.975
- self-aminoacylation (biotinyl-Ile-oxazolone): 1.02
- self-aminoacylation (biotinyl-Trp-oxazolone): 2.96
- self-aminoacylation (biotinyl-Met-oxazolone): 0.989

Sequence: CUACAUCAACCAAUCGGUCUG [Fam1A.1 aminoacylation ribozyme variant]
- self-aminoacylation (biotinyl-Leu-oxazolone): 0.554
- self-aminoacylation (biotinyl-Val-oxazolone): 0.781
- self-aminoacylation (biotinyl-Ile-oxazolone): 0.643
- self-aminoacylation (biotinyl-Trp-oxazolone): 0.796
- self-aminoacylation (biotinyl-Met-oxazolone): 0.748

Sequence: CUACCUCAAACAAUCGCUCUG [Fam1A.1 aminoacylation ribozyme variant]
- self-aminoacylation (biotinyl-Leu-oxazolone): 1.27
- self-aminoacylation (biotinyl-Val-oxazolone): 1.17
- self-aminoacylation (biotinyl-Ile-oxazolone): 0.818
- self-aminoacylation (biotinyl-Trp-oxazolone): 1.83
- self-aminoacylation (biotinyl-Met-oxazolone): 0.85

Sequence: CUACUCCAAACAAGCGGUCUG [Fam1A.1 aminoacylation ribozyme variant]
- self-aminoacylation (biotinyl-Leu-oxazolone): 0.802
- self-aminoacylation (biotinyl-Val-oxazolone): 1.14
- self-aminoacylation (biotinyl-Ile-oxazolone): 1.2
- self-aminoacylation (biotinyl-Trp-oxazolone): 0.584
- self-aminoacylation (biotinyl-Met-oxazolone): 1.13

Sequence: CUACUGCAAACAAUUGGUCUG [Fam1A.1 aminoacylation ribozyme variant]
- self-aminoacylation (biotinyl-Leu-oxazolone): 0.823
- self-aminoacylation (biotinyl-Val-oxazolone): 1.07
- self-aminoacylation (biotinyl-Ile-oxazolone): 1.19
- self-aminoacylation (biotinyl-Trp-oxazolone): 0.956
- self-aminoacylation (biotinyl-Met-oxazolone): 0.966

Sequence: CUACUUCAAACCAUCGGUCGG [Fam1A.1 aminoacylation ribozyme variant]
- self-aminoacylation (biotinyl-Leu-oxazolone): 1.32
- self-aminoacylation (biotinyl-Val-oxazolone): 1.04
- self-aminoacylation (biotinyl-Ile-oxazolone): 1.1
- self-aminoacylation (biotinyl-Trp-oxazolone): 0.759
- self-aminoacylation (biotinyl-Met-oxazolone): 1.15

Sequence: CUACUUCCAACGAUCGGUCUG [Fam1A.1 aminoacylation ribozyme variant]
- self-aminoacylation (biotinyl-Leu-oxazolone): 0.833
- self-aminoacylation (biotinyl-Val-oxazolone): 1.11
- self-aminoacylation (biotinyl-Ile-oxazolone): 0.94
- self-aminoacylation (biotinyl-Trp-oxazolone): 0.897
- self-aminoacylation (biotinyl-Met-oxazolone): 0.97

Sequence: CUUCACCUAGGUCAUGGGGUG [Fam2.2 aminoacylation ribozyme variant]
- self-aminoacylation (biotinyl-Leu-oxazolone): 4.06
- self-aminoacylation (biotinyl-Val-oxazolone): 2.7
- self-aminoacylation (biotinyl-Ile-oxazolone): 2.5
- self-aminoacylation (biotinyl-Trp-oxazolone): 3.7
- self-aminoacylation (biotinyl-Met-oxazolone): 2.84

Sequence: CUUCUUCAAACAAUCGGUCAG [Fam1A.1 aminoacylation ribozyme variant]
- self-aminoacylation (biotinyl-Leu-oxazolone): 0.623
- self-aminoacylation (biotinyl-Val-oxazolone): 0.734
- self-aminoacylation (biotinyl-Ile-oxazolone): 0.818
- self-aminoacylation (biotinyl-Trp-oxazolone): 2.59
- self-aminoacylation (biotinyl-Met-oxazolone): 0.655

Sequence: GAGGUUGCUAAUAGUCGCAAG [Fam3.1 aminoacylation ribozyme variant]
- self-aminoacylation (biotinyl-Leu-oxazolone): 1.54
- self-aminoacylation (biotinyl-Val-oxazolone): 1.68
- self-aminoacylation (biotinyl-Ile-oxazolone): 1.61
- self-aminoacylation (biotinyl-Trp-oxazolone): 1.45
- self-aminoacylation (biotinyl-Met-oxazolone): 1.82

Sequence: GAGUUUGCUAAUCGUCGCAAG [Fam3.1 aminoacylation ribozyme variant]
- self-aminoacylation (biotinyl-Leu-oxazolone): 1.3
- self-aminoacylation (biotinyl-Val-oxazolone): 1.3
- self-aminoacylation (biotinyl-Ile-oxazolone): 1.45
- self-aminoacylation (biotinyl-Trp-oxazolone): 1.92
- self-aminoacylation (biotinyl-Met-oxazolone): 1.44

Sequence: GCACACUUCAAGCAAACGGUC [Fam1B.1 aminoacylation ribozyme variant]
- self-aminoacylation (biotinyl-Leu-oxazolone): 1.28
- self-aminoacylation (biotinyl-Val-oxazolone): 1.47
- self-aminoacylation (biotinyl-Ile-oxazolone): 1.61
- self-aminoacylation (biotinyl-Trp-oxazolone): 1.31
- self-aminoacylation (biotinyl-Met-oxazolone): 1.19

Sequence: GUACAUCAAACAAUCGGUCUG [Fam1A.1 aminoacylation ribozyme variant]
- self-aminoacylation (biotinyl-Leu-oxazolone): 1.11
- self-aminoacylation (biotinyl-Val-oxazolone): 1.25
- self-aminoacylation (biotinyl-Ile-oxazolone): 1.18
- self-aminoacylation (biotinyl-Trp-oxazolone): 1.4
- self-aminoacylation (biotinyl-Met-oxazolone): 0.97

Sequence: GUACUUCAAACAAUCGGUGUG [Fam1A.1 aminoacylation ribozyme variant]
- self-aminoacylation (biotinyl-Leu-oxazolone): 3.35
- self-aminoacylation (biotinyl-Val-oxazolone): 1.97
- self-aminoacylation (biotinyl-Ile-oxazolone): 2.12
- self-aminoacylation (biotinyl-Trp-oxazolone): 10.2
- self-aminoacylation (biotinyl-Met-oxazolone): 2.77

Sequence: GUUACCCUGGUCAUCUAGUGA [Fam2.1 aminoacylation ribozyme variant]
- self-aminoacylation (biotinyl-Leu-oxazolone): 11.7
- self-aminoacylation (biotinyl-Val-oxazolone): 6.05
- self-aminoacylation (biotinyl-Ile-oxazolone): 5.9
- self-aminoacylation (biotinyl-Trp-oxazolone): 13.4
- self-aminoacylation (biotinyl-Met-oxazolone): 12

Sequence: UCACACUUCAAGCAACCGGUC [Fam1B.1 aminoacylation ribozyme variant]
- self-aminoacylation (biotinyl-Leu-oxazolone): 0.739
- self-aminoacylation (biotinyl-Val-oxazolone): 1.05
- self-aminoacylation (biotinyl-Ile-oxazolone): 0.984
- self-aminoacylation (biotinyl-Trp-oxazolone): 0.796
- self-aminoacylation (biotinyl-Met-oxazolone): 0.801
